Assay results published in patent US11866424B2, “Aggregation-induced emission luminogens for photodynamic therapy” (The Hong Kong University of Science and Technology, priority 2020, dated 2024).

test system: HeLa cells; experiment: Photostability under repeated confocal laser scans in stained HeLa cells; type: cell-based; conditions: After 40 times of scan, 22.4 s per scan
Excerpt: For photostability assay, cells were imaged using a Zeiss Laser Scanning Confocal Microscope and analyzed using ZEN 2009 software (Carl Zeiss). Both TFPy and MitroTracker Green were excited at 488 nm (0.6% laser power). Both TFVP and CellMask Green were excited at 488 nm (0.7% laser power). TPE-TFPy was excited at 488 nm, whereas LysoTracker Green was excited at 514 nm with 1% laser power. The scanning speed was 22.4 s per scan, and the repeated image scans were taken 40 times. The first scan of all the presented photosensitizers were set to 100%, followed by which the pixel intensity values were averaged and plotted against the scan number. The resulting curve represents the photobleaching rate.
Motivated by the excellent targetability and specificity of three diverse organelle-targeting AIEgens, photostability was also carefully investigated as it is an essential parameter to evaluate a fluorescence imaging agent. Photostability assessment was carried out by continuous irradiation and sequential scanning with confocal microscope. […] With HeLa cell imaging and photostability data in hand, additional cellular uptake experiment using 4T1 cell line was performed as preliminary study for in vivo experiment.

Fluorescence intensity loss (photostability), minimal intensity loss:
C[n+]1ccc(C=Cc2ccc(-c3ccc(N(c4ccccc4)c4ccccc4)cc3)o2)cc1.F[P-](F)(F)(F)(F)F [TFPy]
C[N+](C)(C)CCC[n+]1ccc(C=Cc2ccc(-c3ccc(N(c4ccccc4)c4ccccc4)cc3)o2)cc1.[Br-].[Br-] [TFVP]
C[n+]1ccc(C=Cc2ccc(-c3ccc(N(c4ccccc4)c4ccc(C(=C(c5ccccc5)c5ccccc5)c5ccccc5)cc4)cc3)o2)cc1.F[P-](F)(F)(F)(F)F [TPE-TFPy]
